Some results were stated once for a whole list of compounds, not compound by compound.
Assays:
[1] = Stability of fumarate compounds in PBS buffer; format: physicochemical; conditions: PBS 50 mM, pH 7.0 to 7.4, 20 to 37° C., 30 min
porcine liver esterase = test: Hydrolysis of fumarate compounds in vitro by porcine liver esterase; format: in vitro ADME; conditions: porcine liver esterase in PBS buffer pH 7.0 to 8.0, 20 to 37° C., ca. 24 h, HPLC

| Structure (SMILES) | stable (compound remaining after incubation in PBS, HPLC) [1] | converted to monoester fumarates and/or fumaric acid (porcine liver esterase) |
| --- | --- | --- |
| CCOC(=O)/C=C/C(=O)OCC(CN1CCCCC1)OC(=O)/C=C/C(=O)OCC.Cl (stereo not drawn) [Compound 5, O4-[2-[(E)-4-Ethoxy-4-oxo-but-2-enoyl]oxy-3-(1-piperidyl)propyl] O1-ethyl (E)-but-2-enedioate HCl salt] | > 90% | > 15% |
| CCOC(=O)/C=C/C(=O)OCC(CN1CCOCC1)OC(=O)/C=C/C(=O)OCC.Cl (stereo not drawn) [Compound 2, O4-[2-[(E)-4-Ethoxy-4-oxo-but-2-enoyl]oxy-3-morpholino-propyl] O1-ethyl (E)-but-2-enedioate HCl salt] | > 90% | > 15% |
| CCOC(=O)/C=C/C(=O)OCC(CN(CC)CC)OC(=O)/C=C/C(=O)OCC.Cl (stereo not drawn) [Compound 11, O4-[3-(Diethylamino)-2-[(E)-4-ethoxy-4-oxo-but-2-enoyl]oxy-propyl] O1-ethyl (E)-but-2-enedioate HCl salt] | > 90% | > 15% |
| CCOC(=O)/C=C/C(=O)OCC(CN(C)C)OC(=O)/C=C/C(=O)OCC.Cl (stereo not drawn) [Compound 8, O4-[3-(Dimethylamino)-2-[(E)-4-ethoxy-4-oxo-but-2-enoyl]oxy-propyl] O1-ethyl (E)-but-2-enedioate HCl salt] | > 90% | > 15% |
| CC(C)OC(=O)/C=C/C(=O)OCC(CN1CCOCC1)OC(=O)/C=C/C(=O)OC(C)C.Cl (stereo not drawn) [Compound 3, O1-[2-[(E)-4-Isopropoxy-4-oxo-but-2-enoyl]oxy-3-morpholino-propyl] O4-isopropyl (E)-but-2-enedioate] | > 90% | > 15% |
| COC(=O)/C=C/C(=O)OCC(CN(C)C)OC(=O)/C=C/C(=O)OC.Cl (stereo not drawn) [Compound 7, O4-[3-(Dimethylamino)-2-[(E)-4-methoxy-4-oxo-but-2-enoyl]oxy-propyl] O1-methyl (E)-but-2-enedioate HCl salt] | > 90% | > 15% |
| CC(C)OC(=O)/C=C/C(=O)OCC(CN1CCCCC1)OC(=O)/C=C/C(=O)OC(C)C.Cl (stereo not drawn) [Compound 6, O1-[2-[(E)-4-Isopropoxy-4-oxo-but-2-enoyl]oxy-3-(1-piperidyl)propyl] O4-isopropyl (E)-but-2-enedioate HCl salt] | > 90% | > 15% |
| COC(=O)/C=C/C(=O)OCC(CN1CCCCC1)OC(=O)/C=C/C(=O)OC.Cl (stereo not drawn) [Compound 4, O4-[2-[(E)-4-Methoxy-4-oxo-but-2-enoyl]oxy-3-(1-piperidyl)propyl] O1-methyl (E)-but-2-enedioate] | > 90% | > 15% |
| CCN(CC)CC(COC(=O)/C=C/C(=O)OC(C)C)OC(=O)/C=C/C(=O)OC(C)C.Cl (stereo not drawn) [Compound 12, O1-[3-(Diethylamino)-2-[(E)-4-isopropoxy-4-oxo-but-2-enoyl]oxy-propyl] O4-isopropyl (E)-but-2-enedioate HCl salt] | > 90% | > 15% |
| COC(=O)/C=C/C(=O)OCC(CN1CCOCC1)OC(=O)/C=C/C(=O)OC.Cl (stereo not drawn) [Compound 1, O4-[2-[(E)-4-Methoxy-4-oxo-but-2-enoyl]oxy-3-morpholino-propyl] O1-methyl (E)-but-2-enedioate HCl salt] | > 90% | > 15% |
| CCN(CC)CC(COC(=O)/C=C/C(=O)OC)OC(=O)/C=C/C(=O)OC.Cl (stereo not drawn) [Compound 10, O4-[3-(Diethylamino)-2-[(E)-4-methoxy-4-oxo-but-2-enoyl]oxy-propyl] O1-methyl (E)-but-2-enedioate HCl salt] | > 90% | > 15% |
| CC(C)OC(=O)/C=C/C(=O)OCC(CN(C)C)OC(=O)/C=C/C(=O)OC(C)C.Cl (stereo not drawn) [Compound 9, O1-[3-(Dimethylamino)-2-[(E)-4-isopropoxy-4-oxo-but-2-enoyl]oxy-propyl] O4-isopropyl (E)-but-2-enedioate HCl salt] | > 90% | > 15% |
